PubChem BioAssay AID540276 (National Center for Advancing Translational Sciences (NCATS), 2011)
About 5,400 (1.8%) of roughly 300,000 compounds were called active. Inconclusive means that the source gave no clear call. Such entries were picked first, then a sample of the others. The call rests on the fitted dose curve; tested in HEK293 cells. A potency beside an inconclusive call is a rough fit, not a confirmed value.

Experiment: qHTS for inhibitors of binding or entry into cells for Marburg Virus
Details: Marburg virus pseudotyped entry inhibition, cell reporter; series mostly up to 37.8 µM
Potency means the concentration at half of the fitted maximal effect.

SMILES	Potency
O=C1c2ccccc2CN2C(=O)c3ccccc3CN12	inactive
CC(=O)Nc1ccc(NS(=O)(=O)c2ccc(-c3csc(C)n3)s2)cc1	inactive
CC1(C)Cc2ccccc2C(NNC(=O)c2ccccn2)=N1	inconclusive: 35.5 µM [inhibitor, single point]
O=c1oc(-c2ccccc2)c(-c2ccccc2)c2ccccc12	inconclusive: 35.5 µM [inhibitor, single point]
CCOC(=O)c1[nH]c2c(c1-c1ccccc1)C(=O)CC(c1ccc(OC)c(OC)c1)C2 (stereo not drawn)	inactive
CCOc1cccc(C(=O)Nc2ccc(NC(=O)c3ccccc3)c(C)c2)c1	inconclusive: 11.2 µM [inhibitor, partial curve]
Cc1ccc(C(=O)Nc2ccc(F)cc2)o1	inactive
CCCCn1c(C(C)NC(=O)c2ccccc2)nc2ccccc21 (stereo not drawn)	inconclusive: 35.5 µM [inhibitor, partial curve, poor fit]
Cc1ccc2c(Cl)c(C(=O)Nc3nn[nH]n3)sc2c1	inconclusive: 35.5 µM [activator, single point]
CCOc1ncccc1C(=O)OCC(=O)Nc1cccc(C(C)=O)c1	inconclusive: 1.3 µM [inhibitor, single point]
CCC1=Nc2cc(C(=O)NCc3cccnc3)ccc2Sc2ccc(C)cc21	inconclusive: 1.78 µM [inhibitor, full curve, poor fit]
COc1ccccc1-c1cc2nc(C)c(CCC(=O)NCc3cccc(Cl)c3)c(C)n2n1	inconclusive: 28.2 µM [inhibitor, single point]
CCNc1ccc2c(Cl)cc(=O)oc2c1	inactive
O=C(Cn1cnc2c(nnn2-c2ccc(F)cc2)c1=O)NCC1CCCO1 (stereo not drawn)	inconclusive: 1 µM [inhibitor, full curve]
Cc1nc(Nc2cccc(C(C)O)c2)c2nnn(Cc3ccc(F)cc3)c2n1 (stereo not drawn)	inconclusive: 11.2 µM [inhibitor, partial curve]
O=C(CC(C(=O)O)C1CCCO1)NCc1ccccc1 (stereo not drawn)	inactive
CCc1ccc2nc(SCC(=O)NCC3CCCO3)c(C#N)cc2c1 (stereo not drawn)	inconclusive: 15.8 µM [activator, single point]
O=C(N/C(=C/c1ccccc1)C(=O)N1CCCCC1)c1ccccc1	inactive
COc1ccc(C(=O)NCc2cc(C)nc3ccccc23)cc1	inconclusive: 16.4 µM [inhibitor, partial curve, poor fit]
Cc1noc(NS(=O)(=O)c2ccc(N/C=C/C(=O)c3ccncc3)cc2)c1C	inactive
CC(C)N(C)Cc1nnnn1CC(=O)NCCc1cccc(C(F)(F)F)c1	inconclusive: 20 µM [inhibitor, single point]
CC(C)CCn1c(SCCc2ccccc2)nc2c1c(=O)[nH]c(=O)n2C	inconclusive: 0.316 µM [activator, partial curve, poor fit]

SMILES	Potency
CCN(CC)S(=O)(=O)c1ccc2c(c1)c(=O)c(C(=O)N1CCN(c3cccc(C)c3)C(C)C1)cn2C (stereo not drawn)	inactive
Cc1cc(/C=N/Nc2ncnc(N)c2[N+](=O)[O-])c(C)n1-c1ccccc1	inconclusive: 0.562 µM [inhibitor, full curve, poor fit]
CCNC(=O)/C(C#N)=C/c1c(N2CCN(c3ccc(OC)cc3)CC2)nc2c(C)cccn2c1=O	inconclusive: 17.8 µM [inhibitor, single point]
Cc1[nH]nc(-c2ccc(O)c(C)c2O)c1-c1cnn(-c2ccccc2)c1	inconclusive: 32.6 µM [inhibitor, single point]
CCOc1ccc(Br)cc1C1C(C(=O)OC)=C(N)Oc2cc(N(C)C)ccc21 (stereo not drawn)	inconclusive: 14.1 µM [inhibitor, single point]
COc1cc(CN2CCCC(N3CCN(c4ccccc4C)CC3)C2)ccc1O (stereo not drawn)	inconclusive: 35.5 µM [inhibitor, single point]
CC(C)Cn1c(=O)c(-[n+]2ccccc2)c([O-])c2ccccc21	inactive
O=C(CCc1nc2ccccc2[nH]1)Nc1ccc2c(c1)OCCO2	inconclusive: 29.1 µM [activator, single point]
COC(=O)C1=C(CS(=O)(=O)c2ccc(OC)c(OC)c2)NC(=O)NC1c1ccc(O)c(OC)c1 (stereo not drawn)	inconclusive: 8.91 µM [activator, partial curve, poor fit]
Cc1ccc(S(=O)(=O)c2c(C)nn(C(C)(C)C)c2OC(=O)c2cccs2)cc1	inconclusive: 10 µM [inhibitor, partial curve, poor fit]
O=C(CSc1nnc2c(Cl)cc(C(F)(F)F)cn12)N(Cc1ccccc1)Cc1ccccc1	inconclusive: 11.2 µM [inhibitor, partial curve, poor fit]
CCn1c(CCNC(=O)c2ccc(OC)cc2)nnc1SCc1ccc(Cl)cc1Cl	inconclusive: 11.6 µM [inhibitor, partial curve, poor fit]
COC(=O)COc1ccc(-c2nccc(-c3ccccn3)n2)cc1	inactive
O=C(C1CCN(CCCc2ccccc2)CC1)N(CCc1ccccc1)Cc1ccccc1	inconclusive: 0.259 µM [inhibitor, full curve, poor fit]
O=C(/C=C/NCC(=O)c1ccccc1)c1ccc(Br)cc1	inactive
O=C1c2ccccc2NC(c2ccco2)N1/N=C/c1ccco1 (stereo not drawn)	inactive
C[C@H](Cc1ccc2c(c1)OC(C(=O)O)(C(=O)O)O2)NC[C@H](O)c1cccc(Cl)c1	inconclusive: 29.1 µM [activator, single point]
COc1ccc(CCNC(=O)c2cc3c(=O)n4ccccc4nc3n(CCN3CCOCC3)c2=N)cc1	active: 2.82 µM
O=C(NCCOc1ccccc1)c1cc(C(=O)NCCOc2ccccc2)cc([N+](=O)[O-])c1	inactive
Cc1ccc(-n2c(O)c(C=Nc3cc(C)on3)c3ccccc3c2=O)c(C)c1	inconclusive: 15.8 µM [inhibitor, partial curve, poor fit]
CC(C)(C)c1onc(OCP(=O)(O)O)c1CC(N)C(=O)O (stereo not drawn)	inconclusive: 16.4 µM [activator, single point]

A second format for part of the listing above:
SMILES | Potency
O=C(Cn1cnc2c(nnn2-c2ccc(F)cc2)c1=O)NCC1CCCO1 (stereo not drawn) | inconclusive: 1 µM [inhibitor, full curve]
Cc1nc(Nc2cccc(C(C)O)c2)c2nnn(Cc3ccc(F)cc3)c2n1 (stereo not drawn) | inconclusive: 11.2 µM [inhibitor, partial curve]
O=C(CCc1nc2ccccc2[nH]1)Nc1ccc2c(c1)OCCO2 | inconclusive: 29.1 µM [activator, single point]
